Measured values taken from US20090304725A1, “Vaccine and Antigen Mimotopes Against Cancerous Diseases Associated with the Carcinoembryonic Antigen CEA” (Medizinische Universitat Wien, priority 2006, published 2009).
At least one peptide structure holds a part that was inferred or is arguable (an end, a ring closure or a residue). At least one compound was matched to its structure with a doubt left.

How the values were obtained:
[1] = test system: Col-1; test: Antigenicity check of MAP in ELISA with Col-1; format: binding, mouse; details: OD450-630 nm
[2] = test system: isotype control antibody; test: Antigenicity check of MAP in ELISA with isotype control antibody; format: binding, mouse; details: OD450-630 nm
[3] = test system: BALB/c mice; test: Immunization experiments in BALB/c mice, serum IgG ELISA; format: in vivo; details: 100 μg i.p. with Al(OH)3, four times in 14-days intervals, sera 1:100, all 8 mice
[4] = test system: Meth-A/CEA tumour cells; test: Meth-A/CEA tumour cell injection and histopathology in immunized BALB/c mice; format: in vivo

CC(C)C[C@H](NC(=O)CNC(=O)CNC(=O)[C@H](CCCNC(=N)N)NC(=O)[C@@H](N)CC(=O)O)C(=O)N[C@@H](Cc1c[nH]c2ccccc12)C(=O)N[C@@H](CCCCN)C(=O)N[C@H](C(=O)N1CCC[C@H]1C(=O)NCCCC[C@H](NC(=O)[C@@H]1CCCN1C(=O)[C@@H](NC(=O)[C@H](CCCCN)NC(=O)[C@H](Cc1c[nH]c2ccccc12)NC(=O)[C@H](CC(C)C)NC(=O)CNC(=O)CNC(=O)[C@H](CCCNC(=N)N)NC(=O)[C@@H](N)CC(=O)O)[C@@H](C)O)C(=O)NCCCC[C@H](NC(=O)[C@H](CCCCNC(=O)[C@@H]1CCCN1C(=O)[C@@H](NC(=O)[C@H](CCCCN)NC(=O)[C@H](Cc1c[nH]c2ccccc12)NC(=O)[C@H](CC(C)C)NC(=O)CNC(=O)CNC(=O)[C@H](CCCNC(=N)N)NC(=O)[C@@H](N)CC(=O)O)[C@@H](C)O)NC(=O)[C@@H]1CCCN1C(=O)[C@@H](NC(=O)[C@H](CCCCN)NC(=O)[C@H](Cc1c[nH]c2ccccc12)NC(=O)[C@H](CC(C)C)NC(=O)CNC(=O)CNC(=O)[C@H](CCCNC(=N)N)NC(=O)[C@@H](N)CC(=O)O)[C@@H](C)O)C(=O)NCC(=O)NCC(=O)N[C@@H](CSCC(=O)NCCCCCCNC(=O)CSC[C@H](NC(=O)CNC(=O)CNC(=O)[C@H](CCCCNC(=O)[C@H](CCCCNC(=O)[C@@H]1CCCN1C(=O)[C@@H](NC(=O)[C@H](CCCCN)NC(=O)[C@H](Cc1c[nH]c2ccccc12)NC(=O)[C@H](CC(C)C)NC(=O)CNC(=O)CNC(=O)[C@H](CCCNC(=N)N)NC(=O)[C@@H](N)CC(=O)O)[C@@H](C)O)NC(=O)[C@@H]1CCCN1C(=O)[C@@H](NC(=O)[C@H](CCCCN)NC(=O)[C@H](Cc1c[nH]c2ccccc12)NC(=O)[C@H](CC(C)C)NC(=O)CNC(=O)CNC(=O)[C@H](CCCNC(=N)N)NC(=O)[C@@H](N)CC(=O)O)[C@@H](C)O)NC(=O)[C@H](CCCCNC(=O)[C@@H]1CCCN1C(=O)[C@@H](NC(=O)[C@H](CCCCN)NC(=O)[C@H](Cc1c[nH]c2ccccc12)NC(=O)[C@H](CC(C)C)NC(=O)CNC(=O)CNC(=O)[C@H](CCCNC(=N)N)NC(=O)[C@@H](N)CC(=O)O)[C@@H](C)O)NC(=O)[C@@H]1CCCN1C(=O)[C@@H](NC(=O)[C@H](CCCCN)NC(=O)[C@H](Cc1c[nH]c2ccccc12)NC(=O)[C@H](CC(C)C)NC(=O)CNC(=O)CNC(=O)[C@H](CCCNC(=N)N)NC(=O)[C@@H](N)CC(=O)O)[C@@H](C)O)C(=O)O)C(=O)O)[C@@H](C)O [CEA-mimotope MAP]
recognition of coated MAP by Col-1 [1]: specifically recognized
recognition of coated MAP by isotype control antibody [2]: not by isotype control antibody
IgG titers towards the CEA-mimotope MAP [3]: increase of IgG titers
IgG titers towards the control MAP [3]: not towards the control MAP
histopathology of tumour sections ([4]; HE stained 4 μm sections, data not shown): inhibits the settling of Meth-A/CEA cells through inflammation
tumour growth (tumour volume) ([4]; immunized BALB/c mice, Meth-A/CEA cells s.c., over a period of 7 days): stagnated
